Source: the supplement of paper PMC12889115
This is one part of the list. Values are raw readings; no control value is given beside them.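 Primary screen: polymyxin B was added at a level permeabilizing Salmonella outer membranes while sparing inner membranes. DMSO wells, both with and without polymyxin B, established maximum growth. Plate-to-plate variation meant each plate was ranked on its own, and the lowest-OD600 compounds were selected as hits.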

System: Salmonella enterica serovar Typhimurium SL1344
Assay: bacterial growth OD600 after 18 h with compound and polymyxin B; higher = more bacterial growth (less inhibition)
Settings: 50 µM, Mueller-Hinton broth

O=C1CC(NS(=O)(=O)N2CCCC2)CN1Cc1ccccc1Cl (stereo not given)
bacterial growth OD600 (polymyxin B 1 µg/mL): 0.939

CCOc1cc(CN2CCC(C(Cc3ccccc3F)N(C)C(=O)c3ccsc3)CC2)ccc1O (stereo not given)
bacterial growth OD600 (polymyxin B 0.75 µg/mL): 0.788

O=C(c1cc2c(nc1Cl)CCC2)N1CCCC(Nc2ccc(F)cc2)C1 (stereo not given)
bacterial growth OD600 (polymyxin B 1 µg/mL): 0.803

c1cncc(CN(CC2CCN(C3CCCC3)CC2)CC2CCCO2)c1 (stereo not given)
bacterial growth OD600 (polymyxin B 1 µg/mL): 0.888

CCOC(=O)C1(CCCc2ccccc2)CCN(Cc2nccn2CC)CC1
bacterial growth OD600 (polymyxin B 1 µg/mL): 0.844

CCOC(=O)CNC(=O)N1CCC(CCOc2ccccc2)(C(=O)OCC)CC1
bacterial growth OD600 (polymyxin B 1 µg/mL): 0.958

Cc1ccc2c(c1)CN(CCC(=O)NCC(c1cccnc1)N1CCCCC1)CC(C)O2 (stereo not given)
bacterial growth OD600 (polymyxin B 0.75 µg/mL): 0.736

CCc1ccc(-c2cn3c(C(=O)N(CC)CCO)csc3n2)cc1
bacterial growth OD600 (polymyxin B 0.75 µg/mL): 0.609

CC#CC(=O)N1CCCCC1C(=O)Nc1ccc(-n2nc(C)cc2C)cc1 (stereo not given)
bacterial growth OD600 (polymyxin B 0.75 µg/mL): 0.775

CC(C)c1noc(-c2ccc(OCC3(C)CCCNC3)nc2)n1 (stereo not given)
bacterial growth OD600 (polymyxin B 0.75 µg/mL): 0.791

COC(=O)[C@@H](NC1CCN(c2ccc(NC(=O)c3ccc(C)cc3C)cc2)CC1)C(C)C
bacterial growth OD600 (polymyxin B 0.75 µg/mL): 0.834

C=CCCC(=O)NCc1cccnc1N1CCN(c2ccccc2C)CC1
bacterial growth OD600 (polymyxin B 1 µg/mL): 0.499

COC(=O)CCCC(=O)N1CCC(C(=O)Nc2ccc(-c3nc4ccccc4o3)cc2)CC1
bacterial growth OD600 (polymyxin B 1 µg/mL): 1.04

COCCN1CCN(C(=O)c2ccc(OC3CCN(C(=O)C4CC4)CC3)cc2)CC1
bacterial growth OD600 (polymyxin B 1 µg/mL): 0.89

COc1cccc(CN2CCCC(CCC(=O)NCc3ccc(OC)cc3OC)C2)c1 (stereo not given)
bacterial growth OD600 (polymyxin B 0.75 µg/mL): 0.974

O=C(C1CCN(Cc2nc(C(c3ccccc3)c3ccccc3)no2)CC1)N1CCCCC1
bacterial growth OD600 (polymyxin B 1 µg/mL): 0.504

CN1CCN(C(=O)C2CCN(c3nc(-c4ccccc4)nc4c3CCC4)CC2)CC1
bacterial growth OD600 (polymyxin B 0.75 µg/mL): 0.806

COc1ccc(C(=O)NC2CC2)c(OC2CCN(Cc3c(C)nn(C)c3Cl)CC2)c1
bacterial growth OD600 (polymyxin B 1 µg/mL): 1.09

CCc1ccc(CN2CCCC(CNS(=O)(=O)c3ccc(OC)cc3)C2)cc1 (stereo not given)
bacterial growth OD600 (polymyxin B 1 µg/mL): 0.87

Cc1ccc(C(=O)N2CCC3(CC2)CC3C(=O)NCCc2ccccn2)c(C)c1 (stereo not given)
bacterial growth OD600 (polymyxin B 0.75 µg/mL): 0.845

Cc1noc(C)c1CCCNC(=O)c1ccc(N2CCC(CO)CC2)nc1
bacterial growth OD600 (polymyxin B 1 µg/mL): 1.17

Cc1csc(CNc2ccc(-c3nc(C4CC4)no3)cn2)n1
bacterial growth OD600 (polymyxin B 0.75 µg/mL): 0.724

O=C(c1ccc(NCC2CCCCO2)nc1)N1CCC(Cn2cccn2)CC1 (stereo not given)
bacterial growth OD600 (polymyxin B 1 µg/mL): 1.07

O=C(CCc1ccco1)N1CCC(C2CCN(Cc3cccc(F)c3F)CC2)C1 (stereo not given)
bacterial growth OD600 (polymyxin B 0.75 µg/mL): 0.854

CC(C)c1cc(CN2CCC(n3nccc3NC(=O)c3ccc4c(c3)OCO4)CC2)n[nH]1
bacterial growth OD600 (polymyxin B 1 µg/mL): 0.006

O=C(NC1CC(=O)N(CCCc2ccccc2)C1)c1ccco1 (stereo not given)
bacterial growth OD600 (polymyxin B 1 µg/mL): 0.87

CCCC(NC(=O)CCCn1nnnc1CN1CCC(C)CC1)c1ccccc1 (stereo not given)
bacterial growth OD600 (polymyxin B 0.75 µg/mL): 0.663

O=C(C1CCCCCC1)N1CCCC(Nc2ccc(F)cc2)C1 (stereo not given)
bacterial growth OD600 (polymyxin B 1 µg/mL): 0.638

COc1ccccc1/C=C/[C@@H]1C[C@H]2CN(Cc3ccccc3C)C(=O)[C@]23CCCN13
bacterial growth OD600 (polymyxin B 0.75 µg/mL): 0.49

CCc1cc(C(=O)N2CCCC(CCC(=O)N3CCN(Cc4ccccc4)CC3)C2)n(C)n1 (stereo not given)
bacterial growth OD600 (polymyxin B 1 µg/mL): 0.896
